In publication PMC8863773:
These are yes or no findings as the source states them, for the method shown. Binding seen in cells or lysates may run through a third protein. Some results given as binding are weak or reduced against the parent protein; the word gives no strength. For part of these data: Sequences can lack the tags named with a protein.

Chains of the proteins cited; added tags and fusions are not shown.
UniProt Q14790: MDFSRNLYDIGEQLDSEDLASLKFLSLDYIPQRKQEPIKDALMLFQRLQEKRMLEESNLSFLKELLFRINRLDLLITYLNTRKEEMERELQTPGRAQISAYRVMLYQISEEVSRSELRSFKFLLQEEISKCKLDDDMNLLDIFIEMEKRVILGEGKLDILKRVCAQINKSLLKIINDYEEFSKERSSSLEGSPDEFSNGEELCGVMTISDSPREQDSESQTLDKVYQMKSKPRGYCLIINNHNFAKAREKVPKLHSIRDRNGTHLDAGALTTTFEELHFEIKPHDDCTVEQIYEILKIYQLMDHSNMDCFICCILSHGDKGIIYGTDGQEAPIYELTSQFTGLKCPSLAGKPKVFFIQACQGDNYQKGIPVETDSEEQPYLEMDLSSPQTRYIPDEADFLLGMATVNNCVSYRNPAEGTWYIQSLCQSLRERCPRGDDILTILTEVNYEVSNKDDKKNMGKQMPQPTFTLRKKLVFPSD
UniProt Q13546: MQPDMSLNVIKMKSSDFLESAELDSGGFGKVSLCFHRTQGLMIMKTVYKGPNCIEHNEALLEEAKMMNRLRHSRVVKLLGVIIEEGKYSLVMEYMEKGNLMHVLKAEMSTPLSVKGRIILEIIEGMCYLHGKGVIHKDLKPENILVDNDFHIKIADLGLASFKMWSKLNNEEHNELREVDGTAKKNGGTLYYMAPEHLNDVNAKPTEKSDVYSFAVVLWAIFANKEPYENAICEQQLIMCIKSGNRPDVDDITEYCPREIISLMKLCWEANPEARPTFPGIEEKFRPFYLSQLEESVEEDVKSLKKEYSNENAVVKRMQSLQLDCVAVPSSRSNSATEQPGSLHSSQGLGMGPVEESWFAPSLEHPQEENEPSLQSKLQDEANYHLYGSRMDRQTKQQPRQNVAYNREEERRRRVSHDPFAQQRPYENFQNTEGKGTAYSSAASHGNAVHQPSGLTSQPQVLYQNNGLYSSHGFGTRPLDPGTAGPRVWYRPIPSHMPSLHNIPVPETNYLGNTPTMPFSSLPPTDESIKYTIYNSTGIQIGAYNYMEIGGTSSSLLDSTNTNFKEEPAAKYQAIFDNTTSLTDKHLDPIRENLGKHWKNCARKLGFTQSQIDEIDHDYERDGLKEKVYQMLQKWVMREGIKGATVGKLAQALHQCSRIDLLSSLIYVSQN
UniProt Q13263: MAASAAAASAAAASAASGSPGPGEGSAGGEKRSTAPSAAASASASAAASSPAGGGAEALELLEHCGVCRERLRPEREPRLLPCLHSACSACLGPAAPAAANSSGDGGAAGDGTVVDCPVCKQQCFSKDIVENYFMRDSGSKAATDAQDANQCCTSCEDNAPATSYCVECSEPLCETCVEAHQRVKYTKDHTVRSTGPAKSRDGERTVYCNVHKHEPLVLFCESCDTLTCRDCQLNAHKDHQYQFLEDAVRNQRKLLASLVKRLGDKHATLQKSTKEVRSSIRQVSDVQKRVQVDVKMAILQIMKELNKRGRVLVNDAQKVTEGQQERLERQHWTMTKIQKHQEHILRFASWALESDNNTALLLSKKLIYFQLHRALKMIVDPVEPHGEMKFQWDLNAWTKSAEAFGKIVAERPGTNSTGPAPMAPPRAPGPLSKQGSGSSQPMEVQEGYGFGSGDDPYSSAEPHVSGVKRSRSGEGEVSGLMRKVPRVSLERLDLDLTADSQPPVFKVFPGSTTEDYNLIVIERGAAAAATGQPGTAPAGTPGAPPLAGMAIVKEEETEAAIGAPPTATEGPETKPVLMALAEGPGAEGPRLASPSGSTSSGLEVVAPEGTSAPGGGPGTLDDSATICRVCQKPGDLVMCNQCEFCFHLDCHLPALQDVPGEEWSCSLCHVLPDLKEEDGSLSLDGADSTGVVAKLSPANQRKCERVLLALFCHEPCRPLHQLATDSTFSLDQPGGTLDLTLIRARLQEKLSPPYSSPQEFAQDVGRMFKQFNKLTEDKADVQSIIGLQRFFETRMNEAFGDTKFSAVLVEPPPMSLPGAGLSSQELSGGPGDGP

Legend:
[1] = target: T1, GFP-mUsp27xS (murine Usp27xS, 438 aa) (mouse) (UniProt Q8CEG8); assay: co-IP; GFP-IP from 1205Lu cells overexpressing GFP-mUsp27xS; data not shown
T1 sequence: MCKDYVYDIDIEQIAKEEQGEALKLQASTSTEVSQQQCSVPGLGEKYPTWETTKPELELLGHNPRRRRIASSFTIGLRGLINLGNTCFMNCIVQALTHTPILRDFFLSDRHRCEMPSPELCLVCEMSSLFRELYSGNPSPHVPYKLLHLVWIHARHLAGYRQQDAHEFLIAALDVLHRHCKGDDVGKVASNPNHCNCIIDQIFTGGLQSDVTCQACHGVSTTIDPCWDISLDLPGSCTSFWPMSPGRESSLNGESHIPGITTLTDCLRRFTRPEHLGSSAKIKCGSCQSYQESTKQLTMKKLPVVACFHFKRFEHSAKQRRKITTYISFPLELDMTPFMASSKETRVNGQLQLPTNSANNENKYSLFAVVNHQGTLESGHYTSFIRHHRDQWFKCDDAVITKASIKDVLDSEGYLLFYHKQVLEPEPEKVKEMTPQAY

[2] = target: T2, 3xFlag-mUsp27xS (murine Usp27xS, 438 aa) (mouse) (UniProt Q8CEG8); assay: co-IP; 293FT cells inducibly expressing hUsp27xL or mUsp27xS, stimulated with PMA; DISC lysis buffer; Supplementary Fig. S1A (legend not shown)
T2 sequence: T1 sequence

[3] = target: pro-caspase-8 (human (endogenous in WM1158)) (UniProt Q14790); assay: co-IP; caspase-8 p18 antibody on protein G agarose; WM1158 TetR-GFP-hUsp27xL cells, 24 h or 48 h doxycycline, with or without TNF; DISC lysis buffer, 4 h at 4 °C; Western blot (Fig. 5B)

Row | binding [1] | binding [2] | binding [3] | Substance
1 | binds | binds | – | RIPK1 (from UniProt Q13546 1-671)
2 | – | – | binds | TRIM28 (from UniProt Q13263 1-835) (enzyme)
